Results on five substances are retold here after paper PMC12462935.

Amino acid sequences for entries named in this document (tags omitted). A change or cut given only in a name is not applied to a line headed by its entry.
UniProt P15923: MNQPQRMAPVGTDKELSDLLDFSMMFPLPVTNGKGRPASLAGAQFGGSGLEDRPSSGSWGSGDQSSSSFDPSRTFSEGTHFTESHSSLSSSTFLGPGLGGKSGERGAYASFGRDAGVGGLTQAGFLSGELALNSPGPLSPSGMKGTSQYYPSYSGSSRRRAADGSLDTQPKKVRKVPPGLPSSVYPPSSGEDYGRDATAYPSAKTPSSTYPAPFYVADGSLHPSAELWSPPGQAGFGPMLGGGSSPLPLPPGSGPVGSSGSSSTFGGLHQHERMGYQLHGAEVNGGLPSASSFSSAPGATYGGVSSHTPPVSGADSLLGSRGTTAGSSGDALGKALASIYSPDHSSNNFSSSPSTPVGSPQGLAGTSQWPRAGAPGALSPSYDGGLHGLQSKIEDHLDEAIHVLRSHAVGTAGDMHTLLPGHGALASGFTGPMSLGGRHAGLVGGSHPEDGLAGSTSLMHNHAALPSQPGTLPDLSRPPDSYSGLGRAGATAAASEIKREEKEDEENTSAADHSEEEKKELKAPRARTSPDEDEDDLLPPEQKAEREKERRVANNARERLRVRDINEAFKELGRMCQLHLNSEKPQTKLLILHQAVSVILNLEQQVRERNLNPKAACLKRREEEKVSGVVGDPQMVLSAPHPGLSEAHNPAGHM
UniProt P15884: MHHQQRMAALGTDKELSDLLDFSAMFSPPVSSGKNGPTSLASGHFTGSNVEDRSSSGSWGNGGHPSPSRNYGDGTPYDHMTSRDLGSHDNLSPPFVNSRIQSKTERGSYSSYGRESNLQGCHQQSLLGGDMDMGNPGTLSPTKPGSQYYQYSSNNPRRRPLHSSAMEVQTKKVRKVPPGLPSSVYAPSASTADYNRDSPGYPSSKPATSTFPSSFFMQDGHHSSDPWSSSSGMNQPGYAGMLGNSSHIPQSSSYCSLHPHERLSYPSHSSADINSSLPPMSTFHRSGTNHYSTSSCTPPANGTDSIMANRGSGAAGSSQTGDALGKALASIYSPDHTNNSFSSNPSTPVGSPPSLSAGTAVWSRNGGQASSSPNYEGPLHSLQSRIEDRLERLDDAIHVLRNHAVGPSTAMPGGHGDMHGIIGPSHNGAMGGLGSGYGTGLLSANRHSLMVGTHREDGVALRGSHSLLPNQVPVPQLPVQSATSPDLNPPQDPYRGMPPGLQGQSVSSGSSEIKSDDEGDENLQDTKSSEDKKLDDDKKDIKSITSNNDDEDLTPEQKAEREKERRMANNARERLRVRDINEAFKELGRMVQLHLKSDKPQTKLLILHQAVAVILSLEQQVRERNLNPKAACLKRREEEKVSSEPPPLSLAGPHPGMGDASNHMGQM
UniProt P19474: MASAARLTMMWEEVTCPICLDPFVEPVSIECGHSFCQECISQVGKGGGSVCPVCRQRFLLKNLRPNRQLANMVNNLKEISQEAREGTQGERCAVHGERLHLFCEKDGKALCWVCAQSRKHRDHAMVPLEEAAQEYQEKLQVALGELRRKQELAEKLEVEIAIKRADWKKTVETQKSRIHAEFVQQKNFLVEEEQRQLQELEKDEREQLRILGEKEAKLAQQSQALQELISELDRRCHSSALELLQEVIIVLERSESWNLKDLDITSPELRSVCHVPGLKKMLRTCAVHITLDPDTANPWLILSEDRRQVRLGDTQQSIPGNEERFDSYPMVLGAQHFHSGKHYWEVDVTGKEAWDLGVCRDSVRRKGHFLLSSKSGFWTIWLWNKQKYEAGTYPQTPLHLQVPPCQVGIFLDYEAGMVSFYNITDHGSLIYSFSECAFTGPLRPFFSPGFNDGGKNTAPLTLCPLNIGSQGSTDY

Results are given in words; binding and its absence hold for the method and conditions named. In cells and extracts the contact can be indirect. Some binding calls cover weakened binding; strength is not graded here. For some assays here: Sequences can lack the tags named with a protein.

The target of experiment [1] is T1, Myc-ID1 (UniProt P41134).
T1 sequence: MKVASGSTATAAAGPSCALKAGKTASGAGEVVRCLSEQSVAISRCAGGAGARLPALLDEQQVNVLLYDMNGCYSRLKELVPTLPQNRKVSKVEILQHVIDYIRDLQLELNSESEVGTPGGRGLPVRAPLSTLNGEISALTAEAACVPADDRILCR
Nature of the experiment: co-IP; HEK293T cells co-transfected with tagged constructs (for ID1 with TCF3, TCF4 or TCF12: with TRIM21 or control vector); MG132 20 µM 6 h, lysates with primary antibodies and protein A/G magnetic beads overnight at 4 °C, immunoblot.

Experiment [2] addresses T2, ID1 (endogenous) (human (endogenous in KYSE30 and KYSE450)) (UniProt P41134).
T2 sequence: T1 sequence
Nature of the experiment: co-IP; endogenous proteins in KYSE30 and KYSE450 cells; anti-TRIM21 or anti-ID1 antibody for TRIM21 with ID1; for TCF12 with ID1 cells treated with 5 µM Sorafenib or not; MG132 20 µM 6 h, protein A/G magnetic beads, immunoblot. A general note: In western blotting, separated proteins are transferred to a membrane and probed.

The target in experiment [3] is T1, Myc-ID1. Nature of the experiment: co-IP; truncated constructs of ID1 (pEBG-GST) tested with TRIM21 and truncated constructs of TRIM21 (pcDNA3) tested with ID1; cells not given.

For the substance Flag-TCF3 (from UniProt P15923 1-654), the binding result with Myc-ID1 [1] is “binds”.

For the substance Flag-TCF4 (from UniProt P15884 1-667), the binding entry with Myc-ID1 [1] was “binds”.

As for “Flag-TRIM21 (from UniProt P19474 1-475) (enzyme)”, the binding entry with Myc-ID1 [1] was “binds”.

With “TRIM21 (endogenous) (from UniProt P19474 1-475) (enzyme)”, the binding result in experiment [2] is “binds”.

With “TRIM21#3 (B30.2/SPRY domain) (from UniProt P19474 268-465) (domain or fragment)”, the binding result with Myc-ID1 [3] is “binds”.
